Results are given in words; binding and its absence hold for the method and conditions named. Binding seen in cells or lysates may run through a third protein. Some binding calls cover weakened binding; strength is not graded here.
Biological target: T1, RYBP (RING1A and YY1 binding protein), endogenous (human (endogenous in MRC-5 and MDA-MB-231)) (UniProt Q8N488)
T1 sequence: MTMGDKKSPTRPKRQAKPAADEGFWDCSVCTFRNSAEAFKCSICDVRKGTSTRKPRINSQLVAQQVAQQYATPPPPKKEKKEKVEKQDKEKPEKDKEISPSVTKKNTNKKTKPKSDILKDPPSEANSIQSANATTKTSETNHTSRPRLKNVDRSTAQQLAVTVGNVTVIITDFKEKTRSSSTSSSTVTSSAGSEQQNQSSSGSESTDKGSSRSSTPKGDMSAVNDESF
Assay: proximity ligation; Duolink in situ PLA on fixed, permeabilised MRC-5 and MDA-MB-231 cells with anti-PKP1 (mouse) and anti-RYBP (rabbit) primary antibodies; confocal microscopy; endogenous proteins

- binding: binds
B1: Plakophilin 1 (PKP1), endogenous (protein, UniProt Q13835 1-747)
chain: MNHSPLKTALAYECFQDQDNSTLALPSDQKMKTGTSGRQRVQEQVMMTVKRQKSKSSQSSTLSHSNRGSMYDGLADNYNYGTTSRSSYYSKFQAGNGSWGYPIYNGTLKREPDNRRFSSYSQMENWSRHYPRGSCNTTGAGSDICFMQKIKASRSEPDLYCDPRGTLRKGTLGSKGQKTTQNRYSFYSTCSGQKAIKKCPVRPPSCASKQDPVYIPPISCNKDLSFGHSRASSKICSEDIECSGLTIPKAVQYLSSQDEKYQAIGAYYIQHTCFQDESAKQQVYQLGGICKLVDLLRSPNQNVQQAAAGALRNLVFRSTTNKLETRRQNGIREAVSLLRRTGNAEIQKQLTGLLWNLSSTDELKEELIADALPVLADRVIIPFSGWCDGNSNMSREVVDPEVFFNATGCLRKRLGMRELLALVPQRATSSRVNLSSADAGRQTMRNYSGLIDSLMAYVQNCVAASRCDDKSVENCMCVLHNLSYRLDAEVPTRYRQLEYNARNAYTEKSSTGCFSNKSDKMMNNNYDCPLPEEETNPKGSGWLYHSDAIRTYLNLMGKSKKDATLEACAGALQNLTASKGLMSSGMSQLIGLKEKGLPQIARLLQSGNSDVVRSGASLLSNMSRHPLLHRVMGNQVFPEVTRLLTSHTGNTSNSEDILSSACYTVRNLMASQPQLAKQYFSSSMLNNIINLCRSSASPKAAEAARLLLSDMWSSKELQGVLRQQGFDRNMLGTLAGANSLRNFTSRF
